Where “and” joins values, the source holds several entries; their conditions need not be identical. Equal entries are not always repeated. The whole screen tested about 340,000 compounds, of which about 170 (0.05%) were called active. The shares of active, inactive and inconclusive entries below differ from those in the screen. The call rests on the fitted dose curve; in most records, active means well fitted inhibition curve with a large enough effect in the signal ratio, with a control signal flat (not every such curve was filed as active); inconclusive means small, poorly fitted or top-dose-only effect, or effect the other way, or a change in a side signal; inactive means flat fitted curve, though single readings scatter; the % refers to the signal ratio. Where the call is inconclusive, the potency comes from a doubtful curve fit.
Test: qHTS Assay to Find Inhibitors of Chronic Active B-Cell Receptor Signaling;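 on activity change, negative = inhibition: plate controls were basal doxycycline-induced cells for no effect and cells given 10 µM MG132 for full effect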
Details: ABC-DLBCL IkBa-CBG/CBR reporter, luminescence ratio (green luciferase fused to IkBa over red control in TMD8 lymphoma cells), 4 h; activity change, negative = inhibition: at 46.1 µM (top of the series)
Method in brief: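 Cell line TMD8 (human ABC DLBCL), stably expressing tet-inducible CBG68-IkBa fusion and CBR; IMDM/0.5% FBS; cpd up to 46 uM; dox induction, 4 h, 37C/5% CO2; dual luminescence; green/red ratio; MG132 control.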
Potency means the concentration at half of the fitted maximal effect.

Structure (SMILES)	Potency	activity change, negative = inhibition
COc1ccc(NC(C)=O)cc1NC(C)C(=O)Nc1ccc(F)cc1 (configuration not stated)	inconclusive: 23.1 µM [falling, single point]	–
Cn1cc(Cl)c(C(=O)OCC(=O)Nc2cccc(Cl)c2)n1	–	inactive: 1.08%
Cc1ccc(Cl)cc1NC(=O)CN1C=NS(=O)(=O)c2ccccc21	inconclusive: 35.5 µM [falling, single point]	–
COc1cc(OC)c(OC)cc1/C=C1\Oc2cc(OS(C)(=O)=O)ccc2C1=O	–	inconclusive: -17.2%
Cc1nc(-c2ccc(C(=O)Nc3cc(S(N)(=O)=O)ccc3C)cc2)cs1	inconclusive: 11.2 µM [falling, partial curve]	–
COc1ccc(C(=O)/C=C/Nc2ccc(S(=O)(=O)Nc3nc(C)cc(C)n3)cc2)cc1OC	–	inconclusive: -7.11%
COc1ccc(/C=C/C(=O)C23CC4CC(CC(C4)C2)C3)cc1CN1CCOCC1	inconclusive: 35.5 µM [falling, single point]	–
COc1ccc(COC(=O)c2ccc(Cl)c(S(=O)(=O)N3CCOCC3)c2)cc1F	–	inconclusive: 1.03%
Cc1ccccc1C(=O)Oc1cccc2c(O)cccc12	–	inconclusive: 1.52%
Cc1cccc(-c2nc(NCCCN(C)C)c3ccccc3n2)c1	–	inactive: -0.643%
COc1ccc(NC(=O)CSc2nc(C3CC3)nc3ccccc23)c(OC)c1	inconclusive: 28.2 µM [falling, single point]	–
COc1ccc(CC(=O)N/N=C\c2cc(Br)c(O)c(Br)c2)cc1	–	inactive: 4.59%
O=C(Nc1ccc(Cl)c(S(=O)(=O)N2CCOCC2)c1)c1cc2ccccc2oc1=O	–	inconclusive: -7.14%
c1ccc(CNc2ncnc3ccccc23)cc1	–	inconclusive: 2.05% and inconclusive: -6.97%
COc1ccc(/C=C2\S/C(=N/S(=O)(=O)c3cccs3)NC2=O)cc1	–	inactive: 0.677%
CC(C)c1csc(CN2CCC(CCC(=O)NCC3CCCO3)CC2)n1 (configuration not stated)	–	inactive: 8.12%
O=C(NC(=S)Nc1ccccc1C(=O)O)c1ccc2ccccc2c1	inconclusive: 4.47 µM [falling, partial curve]	–
N=c1n(Cc2ccccc2)c2ccccc2n1CC(O)COc1ccccc1 (configuration not stated)	–	inconclusive: -14.4%
CC(O)[C@@H](C(=O)N1CCNCC1)n1cc(CCCCN)nn1 (some centres not stated)	–	inconclusive: 38.9%
O=C1NC[C@@H](Cc2ccc(O)cc2)N(CCc2cccc3ccccc23)C1=O	–	inactive: -11.5%
COc1ccc(C(=O)COc2cccc(NC(=O)c3ccco3)c2)cc1	inconclusive: 23.1 µM [falling, partial curve]	–
O=C(NCCO)Nc1ccc2nc(-c3ccco3)c(-c3ccco3)nc2c1	–	inconclusive: 0.749%
COc1ccccc1NC(=O)Cn1nnc(C(=O)NCc2cccs2)c1N	inconclusive: 1.12 µM [falling, full curve, poor fit]	–
O=C(NCc1ccccc1)c1ccc(N2CCC3(CC2)CC(c2ccc(Cl)cc2)=NO3)c([N+](=O)[O-])c1	–	inactive: 11.2%
O=C1COc2ccc(S(=O)(=O)NCc3ccc(Cl)cc3)cc2N1	–	inconclusive: -5.21%
COc1cccc(C(=O)Nc2ccc(C3CC3(Cl)Cl)cc2)c1 (configuration not stated)	inconclusive: 20 µM [falling, partial curve]	–

Structure (SMILES)	Potency	activity change, negative = inhibition
Cc1nc(SCC(=O)NC2(C#N)CCCC2)n(CC(C)C)c1C	–	inconclusive: 9.16%
Cc1ccc2cc3cc(C(=O)NCCC(C)C)oc3nc2c1	–	inconclusive: 9.3%
Cc1ccc(C)c(-n2cc(CN3CCCN(C=O)CC3)c(-c3ccccc3)n2)c1	–	inconclusive: 0.547%
Cc1cccc(OCc2n[nH]c(=S)n2Cc2ccccc2)c1	–	inactive: 1.5%
COc1cc(NC(=O)c2cc(-c3cccc(O)c3)on2)cc(OC)c1OC	inconclusive: 10 µM [falling, partial curve]	–
Cc1ccc(-c2noc(CCCC(=O)NCC3CCCO3)n2)cc1 (configuration not stated)	inconclusive: 14.1 µM [rising, partial curve]	–
Cc1ccc(S(=O)(=O)N2CCN(C(=O)CN3C(=O)c4ccccc4C3=O)CC2)c(C)c1	–	inactive: 0.413%
CCN(CC)CCn1c(=N)n(CC(O)COc2cccc(C)c2)c2ccccc21 (configuration not stated)	–	inconclusive: -18.9%
C/C=C/c1ccc(OCC(=O)OCc2csc(Nc3ccc(C)cc3)n2)c(OC)c1	–	inconclusive: -0.431%
Cc1c(Cl)cccc1NC(=O)CSc1nnnn1C	–	inactive: -1.34%
Cc1ccc(NC(=S)NCc2ccc3[nH]c4c(c3c2)CCCC4)cc1	inconclusive: 0.411 µM [falling, full curve]	–
Cc1cc(C(=O)CCl)c(C)n1CCc1ccc(F)cc1	–	inconclusive: -13.5%
O=C(/C=C/c1ccco1)Nc1cccc(S(=O)(=O)N2CCOCC2)c1	–	inconclusive: 1.55%
O=C(COC(=O)c1ccccc1)c1ccc2c(c1)OCCO2	inconclusive: 25.9 µM [falling, single point]	–
COc1ccc(-c2noc(N3CCC(C(=O)Nc4ccccc4F)CC3)n2)cc1	–	inactive: 4.22%
CCOc1ccc(NC(=O)c2cccnc2Cl)c([N+](=O)[O-])c1	–	inconclusive: 2.33%
CC1CCCC(C)N1C(=O)COC(=O)COc1ccc(C#N)cc1 (configuration not stated)	–	inconclusive: 7.46%
CCCCCCCNC(=O)CN1N=C(c2ccc(C)cc2)CCC1=O	–	inconclusive: -2.2%
CC(C)(C)C(=O)CSc1nc2ccccc2o1	–	inconclusive: 0.631%
COc1ccc(C2=NN(C(=O)CCC(=O)O)C(c3cccs3)C2)cc1 (configuration not stated)	–	inactive: 27.4%
O=C(O)CC12CC3CC(C1)CC(n1ncc(N4CCC5(CC4)OCCO5)c(Cl)c1=O)(C3)C2	inconclusive: 35.5 µM [falling, single point]	–
O=C(Nc1ccc(Br)cc1)c1ccc2ncsc2c1	–	inconclusive: -14.9%
Cc1cc(C)n(CCC(=O)N/N=C/c2ccc(O)cc2O)n1	–	inactive: -20.4%
Cc1ccc2occ(/C=N/NC(=O)c3ccc(O)cc3)c(=O)c2c1	inconclusive: 0.708 µM [falling, full curve]	–
CCCCc1ccc(NC(=O)CSc2nc(=O)n(CCCN3CCOCC3)c3c2CCC3)cc1	–	inactive: -4.83%
CSc1cccc(NC(=S)N(CCN(C)C)C(C)c2ccccn2)c1 (configuration not stated)	–	inactive: -14.9%

Of the compounds above, 3 have a thiophene ring, fused or not:
Structure (SMILES)	Potency	activity change, negative = inhibition
COc1ccc(/C=C2\S/C(=N/S(=O)(=O)c3cccs3)NC2=O)cc1	–	inactive: 0.677%
COc1ccccc1NC(=O)Cn1nnc(C(=O)NCc2cccs2)c1N	inconclusive: 1.12 µM [falling, full curve, poor fit]	–
COc1ccc(C2=NN(C(=O)CCC(=O)O)C(c3cccs3)C2)cc1 (configuration not stated)	–	inactive: 27.4%

Source: PubChem BioAssay AID493014 (National Center for Advancing Translational Sciences (NCATS), 2011)
